Experimental data reported in patent US4293560A, “Talampicillin 2-methoxyphenoxyacetate and pharmaceutical compositions containing it” (priority 1980, dated 1981).
Entries after “also recorded” stand apart in the source; their conditions may differ.

Test: Taste
Details: talampicillin 2-methoxyphenoxyacetate

CC1(C)S[C@@H]2[C@H](NC(=O)[C@H](N)c3ccccc3)C(=O)N2[C@H]1C(=O)OC1OC(=O)c2ccccc21 (single isomer, unassigned) [talampicillin 2-methoxyphenoxyacetate, 2-methoxyphenoxyacetate of the phthalidyl ester of the 6-[D(-)-α-aminophenylacetamido]penicillanic acid]
taste: lacking the bitter taste; also recorded: good taste
